According to US20240261474A1, “BIODEGRADABLE TISSUE SCAFFOLD WITH SECONDARY MATRIX TO HOST WEAKLY ADHERENT CELLS” (THE U.S.A., as represented by the Secretary, Department of …, priority 2021, published 2024):
Some entries share one result that the patent states for a list of compounds.

System: iPSC-RPE
Assay: Trans-epithelial electrical resistance (TER), tight junction integrity
Format: cell-based, human
Conditions: cutoff used to exclude cells with low TER; AGN 193109 0.2 μM, endo-IWR-1 4 uM
Procedure: Different techniques were used to study RPE morphologic features.
At this point the trans-epithelial electrical resistance (TER) was assayed to confirm the quality of differentiation and examine the effect of drugs on tight junction integrity. The minimum threshold of 400 Ωcm^2 for epithelial resistance per unit area is used to determine good batches of differentiation.
Trans-epithelial electrical resistance (TER) is a measure of the tightness of the monolayer. The tighter the monolayer, the healthier are the cells in the monolayer. A cutoff of 400 ohm*cm^2 was used to exclude cells with low TER. […] The range specifies 90% of the data.

How did the “TER relative to cutoff” value turn out when `Cc1ccc(C2=CCC(C)(C)c3ccc(C#Cc4ccc(C(=O)O)cc4)cc32)cc1` [AGN 193109, 4-[2-[5,6-Dihydro-5,5-dimethyl-8-(4-methylphenyl)-2-naphthalenyl]ethynyl]-benzoic acid] was run?
Its value is > 400 ohm*cm^2.
